The whole screen tested about 360,000 compounds, of which about 7,500 (2.1%) were called active. The inconclusive results got no clear call from the source; some entries with a clear call stand among them for comparison. Calls follow the shape of the dose curve; as a rule, active = well fitted inhibition curve with a large enough effect; inconclusive = small, poorly fitted or top-dose-only effect, or effect the other way; inactive = flat fitted curve, though single readings scatter. Potencies beside an inconclusive call are fits to weak or partial responses and may not hold up.
test: Nrf2 qHTS screen for inhibitors; settings: A549 ARE-Fluc reporter, luciferase luminescence, 18-24 h; series mostly up to 46 µM; also: nearly all actives have a fitted effect of over 60% in size
In short: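 Quantitative HTS in A549 cells stably bearing an antioxidant response element-firefly luciferase construct. Inhibition of Nrf2-driven transcription was scored by luminescence after 18-24 h of compound exposure at 37 °C.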
Potency is read from the fitted curve at half-maximal effect.

| SMILES | Potency |
| --- | --- |
| Cc1nc(N2CCN(C(=O)COc3ccccc3)CC2)c2c(C)c(C)sc2n1 | active: 20.6 µM |
| CCN1C(=O)c2ccccc2S(=O)c2ccc(C(=O)NCc3ccccc3OC)cc21 (configuration not stated) | inconclusive: 32.6 µM [falling, partial curve, poor fit] |
| Cc1[nH]n(-c2ccccc2)c(=O)c1C(=O)c1ccc([N+](=O)[O-])cc1 | inconclusive: 23.1 µM [falling, single point] |
| CCOC(=O)N1CCN(Cc2nc3cc(NC(=O)c4ccc([N+](=O)[O-])cc4)ccc3n2C(C)C)CC1 | inconclusive: 20.6 µM [falling, single point] |
| O=C(Nc1cccc(S(=O)(=O)N2CCCCCC2)c1)c1ccc(Cl)nc1 | active: 20.6 µM |
| CN1CCC(=O)N([C@H](CN=[N+]=[N-])Cc2ccccc2)CC1 | inconclusive: 20.6 µM [falling, partial curve] |
| CC(C)C1O/C(=N/C(=O)Nc2ccc(Cl)c(Cl)c2)NC1=O (configuration not stated) | inconclusive: 29.1 µM [falling, single point] |
| Brc1ccc(N=C/C=C/C=C/Nc2ccc(Br)cc2)cc1 | inconclusive: 20.6 µM [falling, single point] |
| Cc1ccccc1-n1c(SCc2cc(=O)n3ccccc3n2)nc2[nH]ncc2c1=O | inconclusive: 20.6 µM [falling, partial curve] |
| Cc1ccc(OCC(O)Cn2c(=N)n(Cc3ccccc3)c3ccccc32)cc1 (configuration not stated) | inconclusive: 0.731 µM [activator, full curve, poor fit] |
| Cc1cc2c(cc1C)NC(c1c(C)n(C)n(-c3ccccc3)c1=O)C1=C(CC(C)(C)CC1=O)N2 (configuration not stated) | inactive |
| Cc1cccc(OCCSc2nc3ccccc3n2CC(=O)N2CCOCC2)c1C | inactive |
| CC(=O)Nc1ccc(NS(=O)(=O)c2ccc(OC(C)C(=O)N3CCOCC3)cc2)cc1 (configuration not stated) | inactive |
| CCOC(=O)c1c(NC(=O)c2ccc(N3C(=O)[C@@H]4[C@H](C3=O)[C@H]3C=C[C@@H]4C3)cc2)sc2c1CCCC2 | inconclusive: 4.11 µM [falling, full curve] |
| CC(C)(C)NC(=O)CSc1nc(Cc2ccccc2)nc2ccccc12 | inconclusive: 9.2 µM [falling, partial curve, poor fit] |
| COc1ccc(-c2cc(C(=O)OCC(=O)NC(C)C)c3ccccc3n2)cc1 | inconclusive: 29.1 µM [falling, single point] |
| CCOc1ccc(S(=O)(=O)Nc2ccc(OC)c(Cl)c2)c2cccnc12 | inconclusive: 16.4 µM [falling, partial curve, poor fit] |
| CC(C)(C)NS(=O)(=O)c1cccc(S(=O)(=O)c2cccc(S(=O)(=O)NC(C)(C)C)c2)c1 | inconclusive: 29.1 µM [falling, single point] |
| O=c1oc2c(CN3CCOCC3)c(O)ccc2c2ccccc12 | inconclusive: 0.651 µM [activator, full curve, poor fit] |
| CC(C)(C)c1cc(/C=N/NC(=O)C[n+]2ccccc2)cc(C(C)(C)C)c1O | inconclusive: 0.0651 µM [falling, full curve, poor fit] |
| Cc1ccccc1CSc1nc2ccccc2c(=O)n1C | inconclusive: 18.4 µM [falling, single point] |

Some values from the list:
Under Potency, Cc1cccc(OCCSc2nc3ccccc3n2CC(=O)N2CCOCC2)c1C is entered as inactive
Under Potency, Cc1ccc(OCC(O)Cn2c(=N)n(Cc3ccccc3)c3ccccc32)cc1 (configuration not stated) is entered as inconclusive: 0.731 µM [activator, full curve, poor fit]

Further entries follow:

| SMILES | Potency |
| --- | --- |
| COc1ccc(NC(=O)C=C(C)C)cc1Cl | inconclusive: 1.84 µM [activator, full curve] |
| Cc1cc(Br)ccc1OCCCCN1CCCCC1 | inconclusive: 2.91 µM [activator, partial curve] |
| O=C(Nc1ccc(-n2cccc2)cc1)C1CC1 | inconclusive: 29.1 µM [activator, single point] |
| Nc1nonc1-n1nnc(C(=O)N/N=C/c2cccnc2)c1CSC1=NCCS1 | inconclusive: 25.9 µM [falling, partial curve, poor fit] |
| COc1ccc(C(CNC(=O)c2oc3ccc(OC)cc3c2C)N2CCCC2)cc1 (configuration not stated) | inactive |
| Cc1cc(Nc2cccc(C(F)(F)F)c2)nc2ccc(NC(=O)c3cccnc3)cc12 | active: 20.6 µM |
| O=C(Cc1c(O)c2ccccc2[nH]c1=O)NC1CCCCCCC1 | inactive |
| Cc1ccc(S(=O)(=O)c2cnc(-c3ccccc3)[nH]c2=O)cc1 | inactive |
| Nc1ccccc1-c1nc2ccccc2[nH]1 | inconclusive: 29.1 µM [activator, single point] |
| O=C(NCC1CCCO1)c1sc2ccccc2c1Cl (configuration not stated) | inconclusive: 2.59 µM [activator, full curve] |
| CCCCCOc1ccc(NC(=O)Cn2c(-c3cncs3)nc3ccccc32)cc1 | inconclusive: 29.1 µM [falling, single point] |
| CCOc1ccc(CCNC(=O)COC(=O)c2cccc(N(C)C)c2)cc1OCC | inconclusive: 1.84 µM [activator, full curve, poor fit] |
| Cc1nc2c(-c3ccccc3)cnn2c(N)c1-c1ccccc1 | inconclusive: 5.17 µM [activator, full curve] |
| CCCn1c(SCC(=O)Nc2nnc(C(C)C)s2)nc2c1c(=O)n(C)c(=O)n2C | inconclusive: 0.206 µM [falling, partial curve, poor fit] |
| Cc1ccccc1Cn1ccc(NC(=O)c2nn3cccnc3c2Cl)n1 | inconclusive: 7.31 µM [activator, partial curve, poor fit] |
| O=C(Nc1nc2ccccc2[nH]1)c1ccccc1F | inconclusive: 10.3 µM [falling, partial curve, poor fit] |
| CC1CC1C(=O)OCC(=O)N(C)c1c(N)n(Cc2ccccc2)c(=O)[nH]c1=O (configuration not stated) | inactive |
| CC1CCCN(C(=O)c2ccc(-c3ccccc3Cl)o2)C1 (configuration not stated) | inconclusive: 5.17 µM [activator, partial curve] |
| O=C(COc1cccc(NC(=O)c2cccc([N+](=O)[O-])c2)c1)c1ccc(Br)cc1 | active: 20.6 µM |
| O=C(CCCC1=NS(=O)(=O)c2ccccc2N1)N1CCN(c2ccc(Cl)cc2)CC1 | inconclusive: 4.61 µM [falling, partial curve, poor fit] |
| CC(C)(C)OC(=O)N(CCc1ccccc1)Cc1ccccc1OCc1ccc(NC(=O)C2CCC2)cc1 | inconclusive: 3.26 µM [activator, full curve] |
